# Percent effect of library compounds

Amino acid sequences for entries named in this document (tags omitted). Residues count along the entry.
UniProt P9WFT3, whole entry: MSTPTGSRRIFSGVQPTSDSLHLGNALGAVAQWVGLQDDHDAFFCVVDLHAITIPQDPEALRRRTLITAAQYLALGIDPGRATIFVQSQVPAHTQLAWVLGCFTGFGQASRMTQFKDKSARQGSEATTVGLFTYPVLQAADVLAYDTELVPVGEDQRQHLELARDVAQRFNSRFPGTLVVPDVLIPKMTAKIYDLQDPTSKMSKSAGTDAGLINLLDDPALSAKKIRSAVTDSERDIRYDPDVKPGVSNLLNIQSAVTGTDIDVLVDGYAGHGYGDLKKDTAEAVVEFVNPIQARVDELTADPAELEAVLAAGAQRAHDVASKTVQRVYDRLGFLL
UniProt Q8IDJ8, 1-583: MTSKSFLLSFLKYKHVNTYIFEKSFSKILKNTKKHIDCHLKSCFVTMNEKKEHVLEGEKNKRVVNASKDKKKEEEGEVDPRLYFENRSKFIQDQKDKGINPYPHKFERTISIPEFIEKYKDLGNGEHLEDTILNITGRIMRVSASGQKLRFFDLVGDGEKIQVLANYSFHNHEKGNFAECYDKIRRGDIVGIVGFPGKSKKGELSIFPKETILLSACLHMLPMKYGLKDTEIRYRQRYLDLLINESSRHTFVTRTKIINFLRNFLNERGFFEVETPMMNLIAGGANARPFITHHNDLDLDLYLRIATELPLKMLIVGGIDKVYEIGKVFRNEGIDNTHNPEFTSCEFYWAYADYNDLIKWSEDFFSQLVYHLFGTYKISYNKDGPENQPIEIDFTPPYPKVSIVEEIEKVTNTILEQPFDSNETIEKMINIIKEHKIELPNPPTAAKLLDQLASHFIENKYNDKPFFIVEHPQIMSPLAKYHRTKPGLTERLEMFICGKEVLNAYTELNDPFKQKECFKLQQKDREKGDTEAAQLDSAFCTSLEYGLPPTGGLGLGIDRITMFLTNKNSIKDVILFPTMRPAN
UniProt P9WPC5, whole entry: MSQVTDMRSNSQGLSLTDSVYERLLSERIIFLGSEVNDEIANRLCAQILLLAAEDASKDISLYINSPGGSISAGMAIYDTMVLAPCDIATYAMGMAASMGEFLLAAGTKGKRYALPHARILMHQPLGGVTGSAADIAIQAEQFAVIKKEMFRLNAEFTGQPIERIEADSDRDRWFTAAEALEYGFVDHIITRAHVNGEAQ
UniProt P9WPC3, whole entry partner: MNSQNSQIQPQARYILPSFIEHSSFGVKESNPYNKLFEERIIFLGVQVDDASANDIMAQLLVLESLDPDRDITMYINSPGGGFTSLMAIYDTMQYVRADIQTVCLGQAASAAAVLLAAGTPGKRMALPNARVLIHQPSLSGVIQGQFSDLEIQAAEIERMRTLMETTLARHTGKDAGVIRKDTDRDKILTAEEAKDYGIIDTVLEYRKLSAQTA

Source: ChEMBL document CHEMBL3988442, “University of Dundee, Small-Polar-MMV Screening Library” (2021).

MtTrpRS: 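Tryptophan-tRNA ligase, Mycobacterium tuberculosis (UniProt P9WFT3). Enzyme assay of tryptophanyl-tRNA synthetase; the read-out is not stated. Tested at 10 µM. Higher most likely means stronger inhibition; the record gives no direction and few retests gave an IC50. Size under these conditions: about 65,000 compounds, about 64 of them at 50% or above in at least one test.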
PfKRS1: 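Lysine-tRNA ligase, Plasmodium falciparum 3D7 (UniProt Q8IDJ8). Enzyme assay of the cytosolic lysyl-tRNA synthetase in 384-well plates, read by luminescence. Compounds at 30 µM. Direction is inferred from only a few compounds that gave an IC50; most scored high, so higher reads as stronger inhibition. Size under these conditions: about 69,000 compounds, about 49 of them at 50% or above in at least one test.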
ClpP1P2: 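ClpP1P2, Mycobacterium tuberculosis (UniProt P9WPC5 and UniProt P9WPC3). Protease assay of ClpP1P2, read by the AMC dye that it sets free. Compounds at 50 µM. Direction is inferred from only a few compounds that gave an IC50; most scored high, so higher reads as stronger inhibition. Most other retested compounds had strongly negative values. Size under these conditions: about 69,000 compounds, about 10 of them at 50% or above in at least one test.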

The filed quantity is “Percent Effect” (%).
How 0% and 100% were set is not recorded. Most values in the screen are low, and negative values occur.
Compounds were drawn at random from those tested, without regard to their results.
A dash means the value is not listed here; it may have been measured.

| structure | MtTrpRS | PfKRS1 | ClpP1P2 |
|---|---|---|---|
| `COCCN(Cc1ccccc1)C(=O)c1csc(-c2nnc[nH]2)n1` | -2.065 | 3.144 | 2.586 |
| `c1csc(-c2noc(CN3CCCC3Cn3cccn3)n2)c1` (centres unmarked) | -5.508 | -0.1341 | -26.62 |
| `Cc1ncccc1O[C@H]1CCN(C(=O)c2cccs2)CC[C@@H]1O` | 0.08361 | 2.159 | 1.696 |
| `COCCN(C)C[C@@H]1CCC[C@@H]2CN(c3ncccn3)C[C@@H]21` | -4.931 | 8.145 | -10.11 |
| `c1cnn(CC2CN(c3ncnc4[nH]ccc34)CCO2)c1` (centres unmarked) | -0.3834 | 3.451 | -4.258 |
| `CC(NC(=O)c1ccoc1)C(=O)N(C)Cc1ccc(O)cc1` (centres unmarked) | 2.468 | 3.239 | -1.091 |
| `Cc1cc(C)nc(N2CCC(c3noc(C)n3)CC2)n1` | 3.608 | -0.6382 | -4.318 |
| `Cc1nccc(CNC(=O)Nc2cc(C(F)(F)F)c[nH]c2=O)n1` | 1.273 | 4.423 | -26.15 |
| `COc1cc(C#N)ccc1OCC(=O)N(C1CC1)C(C)c1ccco1` (centres unmarked) | 1.371 | 8.662 | -6.609 |
| `c1ccc(-n2ncc(CNCC3CCCN3c3cccnn3)n2)cc1` (centres unmarked) | -0.6823 | 1.58 | 4.146 |
| `CN1C(=O)CC2(CCN(S(=O)(=O)c3cccs3)CC2)c2ccccc21` | -1.834 | 15.1 | 1.457 |
| `CNC(=O)NC(=O)CNc1cc(C(=O)OC)cc(C(F)(F)F)c1` | -1.338 | 1.801 | -1.327 |
| `CCOC(=O)N(C)C1CCN(Cc2ccsc2)CC1` | -0.5623 | 3.211 | 3.29 |
| `COCCOC1CCN(C(C(=O)O)c2ccc3c(c2)OCO3)CC1` (centres unmarked) | -3.759 | 2.282 | -3.336 |
| `CCCc1noc(CN2CCCC2c2noc(C3CC3)n2)n1` (centres unmarked) | -3.249 | 1.376 | -31.47 |
| `Cc1nc(Nc2nnc(C)s2)cc(C2CCCN2C2CCCC2)n1` (centres unmarked) | - | 2.989 | -3.716 |
| `O=C(c1ccc(-n2cc(Br)cn2)cc1)N1CCN(c2cnccn2)CC1` | -3.037 | 9.861 | 9.179 |
| `Cc1cc(C2CCCN(CCS(=O)(=O)c3ccccc3)C2)n[nH]1` (centres unmarked) | -4.036 | -0.6333 | 4.599 |
| `CC(C)Nc1ncnc2c1CCN(C(=O)CCc1ccccc1)CC2` | 1.757 | 1.794 | -3.496 |
| `Cc1ccccc1C1(C(=O)NCCN2CCCC(C)C2)CCOCC1` (centres unmarked) | 8.422 | 0.02008 | -2.625 |
| `Cc1ncsc1CN1C[C@@H](O)[C@](O)(CNC(=O)c2ccccn2)C1` | - | 2.698 | -2.521 |
| `Cc1ccc(C(CNC(=O)c2cc(CC(C)C)nn2C)N(C)C)cc1` (centres unmarked) | -3.715 | 1.764 | -0.6179 |
| `CC(NC(=O)N1CCC(OCc2ccccc2)CC1)c1nncn1C` (centres unmarked) | -4.139 | 0.4187 | 0.1723 |
| `Cc1cc(CN(C)C(=O)C2CCS(=O)(=O)C2)no1` (centres unmarked) | 1.486 | 2.506 | 18.76 |
| `COc1ccc(Cc2nc3c([nH]2)CC(C)(C)CNC3=O)cc1OC` | 0.6274 | 8.313 | -2.026 |
| `CN(C)Cc1nn(C)c2c1CCN(S(=O)(=O)c1cccs1)C2` | -1.874 | 2.282 | -4.073 |
| `CSc1nnc(C2CCN(C(=O)N3CCCC3)CC2)n1C` | -4.557 | -1.068 | -4.12 |
| `CN(C)Cc1nn(C)c2c1CN(C(=O)c1ccc[nH]1)C2` | -1.481 | 5.392 | 6.562 |
| `CN(C)C(=O)c1nn(C)c2c1CN(Cc1ccc(F)cc1)C2` | 4.054 | 0.366 | -13.19 |
| `c1ccc(OCCN2CCN(c3ncnc4[nH]ccc34)CC2)cc1` | 3.708 | 2.225 | -14 |
| `O=C(CCOCc1ccccc1)N1CCCC1c1noc(C2CC2)n1` (centres unmarked) | -4.46 | 5.804 | 9.371 |
| `CCC(=O)N1CCC[C@]2(C(=O)N(C)C)CN(c3ccccn3)C[C@@H]2C1` | -4.699 | 2.736 | -8.531 |
| `CN(CCCc1cc(-c2ccccc2)n[nH]1)C(=O)CCCn1cncn1` | -2.727 | -1.548 | 0.2941 |
| `CCc1nc(CN2CCCN(C(=O)c3cn[nH]c3C)CC2)cs1` | 0.3298 | 3.56 | -16.31 |
| `Cc1ccccc1C(C(=O)NCCSC(F)(F)F)N(C)C` (centres unmarked) | -2.617 | 0.8461 | 6.329 |
| `Cc1[nH]ncc1CCCNC(=O)Nc1ccccc1` | 11.73 | -0.6156 | -14.75 |
| `O=C(c1ccsc1)N1CC(c2nc(-c3ccc[nH]c3=O)no2)C1` | 16.95 | 11.08 | 0.126 |
| `Cc1cnn(CCNCc2ccc(S(C)(=O)=O)cc2)c1` | -5.676 | 4.305 | -7.373 |
| `Cc1nc(C2CCCN2Cc2cc(Cl)c3c(c2)OCCO3)no1` (centres unmarked) | 1.459 | 2.09 | -4.379 |
| `CC(C)CN1C(=O)CC[C@H]2CN(C(=O)Cn3ccc(=O)cc3)CC[C@H]21` | 0 | -1.027 | -21.32 |
| `CCc1nc(Cn2c(=O)c3c(C(F)(F)F)cc(C)nc3n2C)no1` | -2.3 | 1.865 | -13.52 |
| `CC(C(=O)NCc1ccco1)N1CCN(Cc2nccn2C)CC1` (centres unmarked) | -8.772 | 5.987 | -3.559 |
| `Cc1cc(CNC2CCCN(c3cccnn3)C2)no1` (centres unmarked) | -1.077 | -1.269 | 14.6 |
| `Cc1cccc(C)c1CN1C(=O)CC2(CCSC2)C1=O` (centres unmarked) | 1.5 | 1.07 | -7.841 |
| `CNc1nc(C)c(C(=O)N2C[C@H]3CC[C@@H]2CN(c2cnccn2)C3)s1` | -0.1805 | 9.943 | -6.34 |
| `O=C(CCOc1ccccc1Cl)N1CCN(c2cnccn2)CC1` | 6.53 | 1.326 | -25.29 |
| `O=C(CCNc1ccc(Cl)cn1)NCc1ccncc1` | -0.5202 | 3.658 | 5.906 |
| `Cn1cc(-c2ncnc3c2CCN(C(=O)c2cnccn2)CC3)cn1` | -2.813 | 1.389 | 0.1984 |
| `O=C1N(Cc2cccnc2)CCC12CCCN(c1ncccn1)C2` (centres unmarked) | - | -1.283 | -2.223 |
| `Cc1c[nH]c(CN2CC[C@@]3(O)CCN(C(=O)C4CCC4)C[C@H]3C2)n1` | 1.371 | 7.41 | 6.561 |
| `O=S(=O)(NCCCn1cncn1)c1ccc2c(c1)OCCO2` | 0.784 | -1.17 | -7.114 |
| `CN(C)C(=O)N1CCc2c(nnn2C)C1COCC1CC1` (centres unmarked) | 3.417 | 5.701 | 1.504 |
| `CCC[C@H]1CN(Cc2ccccc2C#N)C[C@@H]1NS(C)(=O)=O` | -2.079 | 0.4901 | -11.36 |
| `CN1CCC(NCC(O)c2cccc(OCc3ccccc3)c2)CC1` (centres unmarked) | -3.819 | 0.2288 | -2.299 |
| `CNS(=O)(=O)c1ccc(C(=O)NCCNc2ncccn2)cc1` | -1.657 | -0.07181 | 6.252 |
| `CN(C)CCN1C2(CCN(Cc3nccs3)C2)c2ccccc2S1(=O)=O` (centres unmarked) | 15.17 | 2.262 | 1.523 |
| `O=C1CCCN1C(CNS(=O)(=O)C1CC1)Cc1cccc(F)c1` (centres unmarked) | 5.033 | 1.725 | -12.13 |
| `O=C(CCc1cc(Cl)no1)N1CCC(c2cc3ncccc3cn2)CC1` | 1.797 | 0.576 | 3.066 |
| `O=C1CO[C@H]2CN(S(=O)(=O)c3ccccc3)C[C@H]2N1c1ccccc1` | -3.991 | 5.272 | -5.678 |
| `CCCNC(=O)C1CCN(CC(O)c2ccccc2C(F)(F)F)CC1` (centres unmarked) | -2.21 | 8.526 | -7.671 |
| `CCOC(=O)N(C)CC(=O)NCCc1coc(-c2ccc(C)cc2)n1` | -2.352 | 2.572 | -1.233 |
| `O=C(c1ccnc(-n2ccnc2)c1)N1CCCC(n2cccn2)C1` (centres unmarked) | 1.372 | -0.1791 | -7.971 |
| `CC1(C)CC(CN2CCC3(CCC(=O)N(CCO)C3)CC2)CCO1` (centres unmarked) | -1.563 | -1.594 | -11.87 |
| `COc1c(CNCCNC(=O)c2ccc(C)cc2)c(C)nn1C` | -4.956 | -2.217 | 2.278 |
| `COc1coc(CN2CCCC(CCc3ccc(F)cc3)C2)cc1=O` (centres unmarked) | -0.4571 | 2.969 | -5.939 |
| `COc1ccccc1-c1noc(CN2CCCC2Cn2cccn2)n1` (centres unmarked) | 1.943 | -2.405 | -6.759 |
| `CCN1CCCC1(C)c1nc(C)cc(N)n1` (centres unmarked) | -4.552 | 0.3196 | 4.493 |

Repeated from the top, 5 entries:

structure,MtTrpRS,PfKRS1,ClpP1P2
COCCN(Cc1ccccc1)C(=O)c1csc(-c2nnc[nH]2)n1,-2.065,3.144,2.586
c1csc(-c2noc(CN3CCCC3Cn3cccn3)n2)c1 (centres unmarked),-5.508,-0.1341,-26.62
Cc1ncccc1O[C@H]1CCN(C(=O)c2cccs2)CC[C@@H]1O,0.08361,2.159,1.696
COCCN(C)C[C@@H]1CCC[C@@H]2CN(c3ncccn3)C[C@@H]21,-4.931,8.145,-10.11
c1cnn(CC2CN(c3ncnc4[nH]ccc34)CCO2)c1 (centres unmarked),-0.3834,3.451,-4.258